Measured values published in US5260210A, “Blood-brain barrier model” (priority 1990, dated 1993).
At least one read-out could not be matched to a standard name with certainty. For at least one compound, name, drawing or mass did not settle the structure.

System: bovine brain capillary endothelial cells
Assay: Transmonolayer (transendothelial cell) electrical resistance in the in vitro BBB model
Details: for Relative Resistance: Table 2, control = 100, 24 h, 0.4 μm polycarbonate, 35 μM RO-20-1724 in all cultures, cAMP 250 μM, others 10 μM, average of 3
Experimental: The degree of tightness of tight junctions can be also assessed by transcellular electrical resistance measurements. For transendothelial cell resistance measurements, cells were grown on a porous solid support, e.g., a filter or membrane attached to a holding device in order adequately to suspend the cellular monolayer, such as the Costar Transwell apparatus or the ICN Cellogen. […] Cells were maintained in a growth medium or physiological saline, and calomel electrodes on each of the endothelial cells are connected by a saturated KCl - 3% agar bridge. Current is passed between two Ag--AgCl electrodes and the voltage measured with a Keithly multimeter. Resistance is calculated from the change in voltage across the monolayer induced when a short current pulse (10-100 μamp) is applied. The resistance of the filter or membrane alone is subtracted. The resistance, multiplied by the surface area of the filter or membrane, yields the resistance in ohms-cm^2.
Bovine brain capillary endothelial cells were grown on polycarbonate filters in a conditioned growth medium containing either 5% or 10% PDHS. In controls, the growth medium contained 5% PDHS (.quadrature.) or 10% PDHS. […]
Bovine brain endothelial cells were dissociated and plated on tissue culture dishes in 50% MEM/FCS - 50% ADCM. […]
Bovine brain microvascular endothelial cells were isolated and grown on permeable filters in the BBB in vitro model of the invention. Cells were maintained in astrocyte-derived conditioned medium, but were not treated with agents that elevate cyclic AMP levels in such cells.
Resistance was then measured at various times.
The medium containing these cyclic AMP elevating agents was removed, and the cells were washed with fresh growth medium.

| Structure (SMILES) | Relative Resistance | effect of adenosine receptor Gi agonists on resistance of brain endothelial cells |
| --- | --- | --- |
| C=C[C@@]1(C)CC(=O)[C@]2(O)[C@@]3(C)[C@@H](O)CCC(C)(C)[C@@H]3[C@H](O)[C@H](OC(C)=O)[C@@]2(C)O1 [Forskolin, forskolin] | 834 | – |
| C[C@H](Cc1ccccc1)Nc1ncnc2c1ncn2[C@@H]1O[C@H](CO)[C@@H](O)[C@H]1O [R-PIA, N^6 -(phenylisopropyl)-adenosine] | – | effective in reducing the resistance of brain endothelial cells |
| NCCc1c[nH]c2ccc(O)cc12 [5-HT, 5-hydroxytryptamine] | 586 | – |
